Results as given in doi:10.1101/2023.01.12.523719.
These are yes or no findings as the source states them, for the method shown. Binding seen in cells or lysates may run through a third protein. Some binding calls cover weakened binding; strength is not graded here. For some assays here: Tags and fused reporters may be left off the sequences shown.

Sequences of proteins named here, by UniProt entry; tags and fusion partners are left off.
UniProt Q810Q5: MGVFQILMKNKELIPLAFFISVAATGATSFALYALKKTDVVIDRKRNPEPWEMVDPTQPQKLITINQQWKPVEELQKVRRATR

T1: Myc-tagged NLRP6 full-length (UniProt Q91WS2)
T1 sequence: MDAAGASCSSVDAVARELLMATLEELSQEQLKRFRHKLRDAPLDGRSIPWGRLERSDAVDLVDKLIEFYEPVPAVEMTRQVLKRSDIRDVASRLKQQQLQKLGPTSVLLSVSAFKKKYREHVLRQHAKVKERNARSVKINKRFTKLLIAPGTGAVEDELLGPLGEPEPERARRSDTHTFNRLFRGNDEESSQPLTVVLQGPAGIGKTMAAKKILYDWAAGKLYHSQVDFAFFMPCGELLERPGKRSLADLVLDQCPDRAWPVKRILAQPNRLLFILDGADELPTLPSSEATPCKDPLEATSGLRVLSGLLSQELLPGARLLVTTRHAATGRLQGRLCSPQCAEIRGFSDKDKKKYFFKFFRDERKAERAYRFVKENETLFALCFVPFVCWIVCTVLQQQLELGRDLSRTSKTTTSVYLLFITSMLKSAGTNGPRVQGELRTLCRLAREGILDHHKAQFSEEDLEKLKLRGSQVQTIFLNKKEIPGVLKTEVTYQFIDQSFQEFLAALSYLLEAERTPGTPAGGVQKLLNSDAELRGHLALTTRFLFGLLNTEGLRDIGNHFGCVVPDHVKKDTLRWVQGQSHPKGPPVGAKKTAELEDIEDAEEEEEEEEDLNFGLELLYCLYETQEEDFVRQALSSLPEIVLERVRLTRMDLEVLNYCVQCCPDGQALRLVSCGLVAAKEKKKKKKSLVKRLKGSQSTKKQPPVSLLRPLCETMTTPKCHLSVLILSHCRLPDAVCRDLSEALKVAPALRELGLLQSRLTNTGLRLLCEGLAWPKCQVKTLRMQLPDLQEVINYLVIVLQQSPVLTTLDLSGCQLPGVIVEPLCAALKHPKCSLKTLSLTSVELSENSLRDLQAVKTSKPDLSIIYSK

T2: endogenous NLRP6 (mouse (endogenous in small intestinal enterocytes)) (UniProt Q91WS2)
T2 sequence: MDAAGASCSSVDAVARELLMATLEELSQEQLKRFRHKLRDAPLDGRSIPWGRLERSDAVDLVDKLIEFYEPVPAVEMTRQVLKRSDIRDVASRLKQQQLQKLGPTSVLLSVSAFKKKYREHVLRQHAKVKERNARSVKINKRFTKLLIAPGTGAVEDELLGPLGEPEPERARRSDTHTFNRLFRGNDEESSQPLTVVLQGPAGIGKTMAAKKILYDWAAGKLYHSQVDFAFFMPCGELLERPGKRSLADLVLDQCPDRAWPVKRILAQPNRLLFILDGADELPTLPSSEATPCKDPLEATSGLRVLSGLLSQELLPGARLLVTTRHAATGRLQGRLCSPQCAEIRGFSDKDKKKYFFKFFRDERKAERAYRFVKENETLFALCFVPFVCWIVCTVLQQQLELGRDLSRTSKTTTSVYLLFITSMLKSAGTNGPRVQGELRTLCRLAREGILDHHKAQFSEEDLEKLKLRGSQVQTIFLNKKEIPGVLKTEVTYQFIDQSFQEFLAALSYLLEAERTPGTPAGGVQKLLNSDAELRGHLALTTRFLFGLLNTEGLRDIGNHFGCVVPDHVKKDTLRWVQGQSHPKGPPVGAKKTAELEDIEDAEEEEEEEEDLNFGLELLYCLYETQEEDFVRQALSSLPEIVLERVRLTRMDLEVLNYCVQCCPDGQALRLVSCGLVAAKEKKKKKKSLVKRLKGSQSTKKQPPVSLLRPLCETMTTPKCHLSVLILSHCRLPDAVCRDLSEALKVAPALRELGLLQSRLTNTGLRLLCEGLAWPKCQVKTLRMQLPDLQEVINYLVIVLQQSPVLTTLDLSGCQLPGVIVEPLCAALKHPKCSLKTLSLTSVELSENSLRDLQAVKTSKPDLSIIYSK


What was measured:
[1] = molecular target: T1, Myc-tagged NLRP6 full-length; experiment: co-IP
[2] = molecular target: T2, endogenous NLRP6 (mouse (endogenous in small intestinal enterocytes)); experiment: co-IP
FLAG-tagged iTie (mouse) = FLAG-tagged iTie (mouse) (UniProt Q810Q5); experiment: co-IP
[3] = molecular target: Recombinant GST-iTie (mouse) (UniProt Q810Q5); experiment: pull-down
[4] = molecular target: Endogenous iTie (mouse (endogenous in small intestinal enterocytes)) (UniProt Q810Q5); experiment: co-IP

binding (FLAG-tagged iTie (mouse))	binding [3]	Molecule	other results
–	–	FLAG-tagged iTie (from UniProt Q810Q5 1-83)	binding [1]: binds
–	–	Endogenous iTie (from UniProt Q810Q5 1-83)	binding [2]: binds
no binding	–	Myc-tagged caspase-1 (enzyme, UniProt P29452 1-402) MADKILRAKRKQFINSVSIGTINGLLDELLEKRVLNQEEMDKIKLANITAMDKARDLCDHVSKKGPQASQIFITYICNEDCYLAGILELQSAPSAETFVATEDSKGGHPSSSETKEEQNKEDGTFPGLTGTLKFCPLEKAQKLWKENPSEIYPIMNTTTRTRLALIICNTEFQHLSPRVGAQVDLREMKLLLEDLGYTVKVKENLTALEMVKEVKEFAACPEHKTSDSTFLVFMSHGIQEGICGTTYSNEVSDILKVDTIFQMMNTLKCPSLKDKPKVIIIQACRGEKQGVVLLKDSVRDSEEDFLTDAIFEDDGIKKAHIEKDFIAFCSSTPDNVSWRHPVRGSLFIESLIKHMKEYAWSCDLEDIFRKVRFSFEQPEFRLQMPTADRVTLTKRFYLFPGH	–
no binding	–	Myc-tagged GSDMD (protein, UniProt Q9D8T2 1-487) MPSAFEKVVKNVIKEVSGSRGDLIPVDSLRNSTSFRPYCLLNRKFSSSRFWKPRYSCVNLSIKDILEPSAPEPEPECFGSFKVSDVVDGNIQGRVMLSGMGEGKISGGAAVSDSSSASMNVCILRVTQKTWETMQHERHLQQPENKILQQLRSRGDDLFVVTEVLQTKEEVQITEVHSQEGSGQFTLPGALCLKGEGKGHQSRKKMVTIPAGSILAFRVAQLLIGSKWDILLVSDEKQRTFEPSSGDRKAVGQRHHGLNVLAALCSIGKQLSLLSDGIDEEELIEAADFQGLYAEVKACSSELESLEMELRQQILVNIGKILQDQPSMEALEASLGQGLCSGGQVEPLDGPAGCILECLVLDSGELVPELAAPIFYLLGALAVLSETQQQLLAKALETTVLSKQLELVKHVLEQSTPWQEQSSVSLPTVLLGDCWDEKNPTWVLLEECGLRLQVESPQVHWEPTSLIPTSALYASLFLLSSLGQKPC	–
binds	binds	Myc-tagged NLRP6 full-length (protein, UniProt Q91WS2 1-869) MDAAGASCSSVDAVARELLMATLEELSQEQLKRFRHKLRDAPLDGRSIPWGRLERSDAVDLVDKLIEFYEPVPAVEMTRQVLKRSDIRDVASRLKQQQLQKLGPTSVLLSVSAFKKKYREHVLRQHAKVKERNARSVKINKRFTKLLIAPGTGAVEDELLGPLGEPEPERARRSDTHTFNRLFRGNDEESSQPLTVVLQGPAGIGKTMAAKKILYDWAAGKLYHSQVDFAFFMPCGELLERPGKRSLADLVLDQCPDRAWPVKRILAQPNRLLFILDGADELPTLPSSEATPCKDPLEATSGLRVLSGLLSQELLPGARLLVTTRHAATGRLQGRLCSPQCAEIRGFSDKDKKKYFFKFFRDERKAERAYRFVKENETLFALCFVPFVCWIVCTVLQQQLELGRDLSRTSKTTTSVYLLFITSMLKSAGTNGPRVQGELRTLCRLAREGILDHHKAQFSEEDLEKLKLRGSQVQTIFLNKKEIPGVLKTEVTYQFIDQSFQEFLAALSYLLEAERTPGTPAGGVQKLLNSDAELRGHLALTTRFLFGLLNTEGLRDIGNHFGCVVPDHVKKDTLRWVQGQSHPKGPPVGAKKTAELEDIEDAEEEEEEEEDLNFGLELLYCLYETQEEDFVRQALSSLPEIVLERVRLTRMDLEVLNYCVQCCPDGQALRLVSCGLVAAKEKKKKKKSLVKRLKGSQSTKKQPPVSLLRPLCETMTTPKCHLSVLILSHCRLPDAVCRDLSEALKVAPALRELGLLQSRLTNTGLRLLCEGLAWPKCQVKTLRMQLPDLQEVINYLVIVLQQSPVLTTLDLSGCQLPGVIVEPLCAALKHPKCSLKTLSLTSVELSENSLRDLQAVKTSKPDLSIIYSK	–
–	binds	endogenous NLRP6 (protein, UniProt Q91WS2 1-869) MDAAGASCSSVDAVARELLMATLEELSQEQLKRFRHKLRDAPLDGRSIPWGRLERSDAVDLVDKLIEFYEPVPAVEMTRQVLKRSDIRDVASRLKQQQLQKLGPTSVLLSVSAFKKKYREHVLRQHAKVKERNARSVKINKRFTKLLIAPGTGAVEDELLGPLGEPEPERARRSDTHTFNRLFRGNDEESSQPLTVVLQGPAGIGKTMAAKKILYDWAAGKLYHSQVDFAFFMPCGELLERPGKRSLADLVLDQCPDRAWPVKRILAQPNRLLFILDGADELPTLPSSEATPCKDPLEATSGLRVLSGLLSQELLPGARLLVTTRHAATGRLQGRLCSPQCAEIRGFSDKDKKKYFFKFFRDERKAERAYRFVKENETLFALCFVPFVCWIVCTVLQQQLELGRDLSRTSKTTTSVYLLFITSMLKSAGTNGPRVQGELRTLCRLAREGILDHHKAQFSEEDLEKLKLRGSQVQTIFLNKKEIPGVLKTEVTYQFIDQSFQEFLAALSYLLEAERTPGTPAGGVQKLLNSDAELRGHLALTTRFLFGLLNTEGLRDIGNHFGCVVPDHVKKDTLRWVQGQSHPKGPPVGAKKTAELEDIEDAEEEEEEEEDLNFGLELLYCLYETQEEDFVRQALSSLPEIVLERVRLTRMDLEVLNYCVQCCPDGQALRLVSCGLVAAKEKKKKKKSLVKRLKGSQSTKKQPPVSLLRPLCETMTTPKCHLSVLILSHCRLPDAVCRDLSEALKVAPALRELGLLQSRLTNTGLRLLCEGLAWPKCQVKTLRMQLPDLQEVINYLVIVLQQSPVLTTLDLSGCQLPGVIVEPLCAALKHPKCSLKTLSLTSVELSENSLRDLQAVKTSKPDLSIIYSK	binding [4]: binds
